Test system: short-term memory
Experiment: passive avoidance test in a "Skinner box": reversal of scopolamine-induced blocking of the short-term memory
Format: in vivo, rats
Conditions: scopolamine 0.3 mg/kg i.p. and distilled water p.o.; during 3-4 hours

## CN1[C@@H]2C[C@@H](OC(=O)[C@H](CO)c3ccccc3)C[C@H]1[C@@H]1O[C@@H]12 [scopolamine]
  animals with retrograde effect on the short-term memory (have forgotten to remain on the platform): 85-92%

Source: US4883815A, “Hydrocinnamic acid derivatives” (Hoffmann-La Roche Inc., priority 1987, dated 1989)
